# Measurements: PubChem BioAssay AID1487 (National Center for Advancing Translational Sciences (NCATS), 2009)
# Some of the results follow. The main result of the screen is listed elsewhere. These columns were measured beside it and carry no call. The list favours compounds with an active or inconclusive main result. The note in brackets gives the kind of curve behind each potency; many fits are weak.
# Assay: qHTS Assay for Modulators of Lamin A Splicing
# Conditions: HeLa LMNA splicing GFP/RFP minigene ratio, 48 h
# In short: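 S3 HeLa stable clones carrying a lamin A-EGFP splicing minigene plus DsRed2 were seeded at 600 cells/well in Opti-MEM with 2% FBS, pin-dosed and incubated 48 h at 37°C. Acumen cytometry (488 nm) gave the GFP/RFP total-intensity ratio.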
# [1] = measured here: GFP splicing reporter channel
# [2] = measured here: RFP viability control channel
SMILES,AC50 [1],AC50 [2]
CC(NC(=O)CN(c1cccc(C(F)(F)F)c1)S(=O)(=O)c1ccc(Cl)c([N+](=O)[O-])c1)c1ccccc1 (stereo not drawn),"25.1 µM [falling, partial curve, poor fit]",
CCOC(=O)C1=C(N)Oc2cc(O)ccc2C1c1cccnc1 (stereo not drawn),"5.62 µM [rising, partial curve, poor fit]","12.6 µM [rising, partial curve, poor fit]"
Cc1cccc(OCC(=O)NC(=S)Nc2ccccc2N2CCOCC2)c1,"3.98 µM [rising, partial curve, poor fit]","17.8 µM [rising, single point]"
COc1ccc(CCNC(=O)c2cc(C(=O)c3cc(Cl)ccc3O)cn(CCc3ccc(OC)cc3)c2=O)cc1,,"0.631 µM [rising, partial curve, poor fit]"
Cc1cc(Cl)c(S(=O)(=O)N2CCN(c3ccc(F)cc3)CC2)cc1OCC(N)=O,"5.01 µM [rising, partial curve]","3.16 µM [rising, full curve]"
Cc1cc(C)nc(SCc2nc3ncccn3c2Br)n1,"17.8 µM [rising, partial curve, poor fit]",
CC1CC(=S)Nc2ccccc2N1Cc1ccccc1 (stereo not drawn),"35.5 µM [rising, partial curve, poor fit]","35.5 µM [rising, single point]"
O=C(/C=C/c1ccccc1)N1CCC(Cc2ccccc2)CC1,"15.8 µM [rising, single point]","20 µM [rising, single point]"
O=S(=O)(Nc1ccc(O)c(Sc2nc3ccccc3s2)c1)c1cccc2ccccc12,"35.5 µM [falling, single point]","35.5 µM [falling, single point]"
CSc1ncnc2sc(C)c(C)c12,,"0.00794 µM [rising, full curve]"
COc1ccc(S(=O)(=O)Oc2ccc3ccccc3c2)cc1,"12.6 µM [rising, single point]","35.5 µM [rising, single point]"
CCOc1cccc(OCCCOc2cccc3cccnc23)c1,"5.62 µM [rising, partial curve, poor fit]","11.2 µM [rising, single point]"
CCOC(=O)N1CCN(/C=C(\C#N)c2nc3ccccc3s2)CC1,"35.5 µM [rising, single point]","35.5 µM [rising, single point]"
COc1ccc(C=O)cc1COc1ccccc1F,"0.0158 µM [rising, full curve, poor fit]",
Cc1ccc(CN2CC(C(=O)Nc3nnc(SCc4c(Cl)cccc4Cl)s3)CC2=O)cc1 (stereo not drawn),"35.5 µM [rising, single point]","35.5 µM [rising, single point]"
Cc1ccc(-c2cc(C(=O)NCc3ccccn3)c3ccccc3n2)cc1C,,"35.5 µM [rising, single point]"
O=C(CSc1nc2ccccc2nc1Cc1ccc(F)cc1)Nc1ccc2c(c1)OCO2,,"0.0316 µM [falling, full curve, poor fit]"
COc1ccc(-n2c3c(c(=O)[nH]c2=O)C(NC(C)=O)(C(F)(F)F)C(=O)N3)cc1 (stereo not drawn),,"0.562 µM [falling, full curve, poor fit]"
Clc1ccc(CSc2nnc([C@@H]3CCCN3)o2)cc1,,"0.00891 µM [rising, full curve, poor fit]"
Clc1ccccc1-c1cc(NCc2ccccc2)ncn1,"11.2 µM [falling, partial curve, poor fit]",
O=C(O)CCC(=O)N1CCCC1C(=O)O (stereo not drawn),"0.00316 µM [falling, full curve, poor fit]",
S=C(NCc1cccnc1)Nc1cccc2ccccc12,,"35.5 µM [rising, single point]"
CC(=NCCc1c(C)[nH]c2ccc(C)cc12)C1=C(O)CC(c2ccccc2)CC1=O (stereo not drawn),"0.891 µM [falling, partial curve, poor fit]","5.62 µM [rising, single point]"
COc1ccc2c(C)cc(SCc3c(C)noc3C)nc2c1,"17.8 µM [rising, single point]",
Cc1ccc(NC2(c3nnnn3-c3c(C)cccc3C)CCCCC2)cc1,,"35.5 µM [rising, single point]"
O=C(Nc1nnc(S(=O)(=O)N2CCCCCC2)s1)c1ccc(Br)cc1,,"2.82 µM [rising, full curve]"
COC(=O)c1ccc(NC(=S)N2CCN(Cc3ccccc3Cl)CC2)cc1,,"28.2 µM [falling, partial curve, poor fit]"

# Pulled one by one from above, 3 records:
SMILES,AC50 [1],AC50 [2]
O=C(O)CCC(=O)N1CCCC1C(=O)O (stereo not drawn),"0.00316 µM [falling, full curve, poor fit]",
COc1ccc(S(=O)(=O)Oc2ccc3ccccc3c2)cc1,"12.6 µM [rising, single point]","35.5 µM [rising, single point]"
Cc1cc(C)nc(SCc2nc3ncccn3c2Br)n1,"17.8 µM [rising, partial curve, poor fit]",

# Carrying on.

SMILES,AC50 [1],AC50 [2]
Cc1ccc(S(=O)(=O)N(CC(=O)N/N=C/c2ccc(F)cc2)c2cccc3cccnc23)cc1,"12.6 µM [falling, single point]","12.6 µM [falling, partial curve]"
Cc1cc(C(=O)Cn2ncc(Cl)c(Cl)c2=O)c(C)n1CC(F)(F)F,,"15.8 µM [falling, partial curve]"
COc1ccc(-c2c(NC(=O)c3ccco3)n(C)c3ccccc3c2=O)cc1,,"11.2 µM [falling, partial curve, poor fit]"
C=C(C(=O)c1ccccc1)C(CC(=O)c1ccccc1)c1ccccc1 (stereo not drawn),"12.6 µM [falling, partial curve]","11.2 µM [falling, single point]"
Cc1ccc(S(=O)(=O)NCCC(=O)OCC(=O)Nc2ccccc2Cl)cc1,,"14.1 µM [rising, partial curve, poor fit]"
COc1cc(NS(=O)(=O)c2ccc(N/C=C(\C#N)c3nc4ccccc4o3)cc2)nc(OC)n1,"6.31 µM [rising, partial curve]","8.91 µM [rising, partial curve]"
COc1ccc(-c2noc(CN3CCC(Cc4ccccc4)CC3)n2)cc1,,"35.5 µM [rising, single point]"
CCN(CC)S(=O)(=O)c1cc(NC(=O)C(C)Nc2ccccc2N2CCOCC2)ccc1C (stereo not drawn),"0.891 µM [falling, partial curve]","0.224 µM [falling, full curve, poor fit]"
CCOC(=O)c1sc(NC(=O)c2nc3ncccn3n2)c(C(=O)OC(C)C)c1C,,"0.00316 µM [falling, full curve, poor fit]"
Cc1ccc(NC(=S)NCCN(C2CCCCC2)C2CCCC2)cc1C,"28.2 µM [falling, partial curve]","35.5 µM [falling, single point]"
CC(=O)c1c(C)[nH]c(C(=O)Nc2ccc(Cl)c(S(=O)(=O)N3CCOCC3)c2)c1C,,"12.6 µM [rising, partial curve]"
Cc1ccc(NS(=O)(=O)c2ccc3[nH]c4c(c3c2)CCCC4)c(C)c1,"17.8 µM [falling, partial curve]","25.1 µM [falling, single point]"
CN(C)Cc1ccccc1Sc1cccc2ccccc12,,"22.4 µM [rising, single point]"
Cc1cc(C)cc(C(=O)NCC(=O)OCC(=O)N2CCN(S(=O)(=O)c3ccc4ccccc4c3)CC2)c1,"7.08 µM [rising, partial curve]","5.62 µM [rising, full curve, poor fit]"
CCC(=O)N1CCc2cc(S(=O)(=O)NCCC(=O)N3CCN(Cc4ccccc4)CC3)ccc21,"17.8 µM [rising, single point]","15.8 µM [rising, single point]"
CCOCCn1c(COc2ccc(C)cc2)nc2ccccc21,"10 µM [rising, partial curve, poor fit]","15.8 µM [rising, single point]"
COC(=O)c1ccc2nc(NC(=O)CN3C(=O)CCC3=O)sc2c1,,"6.31 µM [rising, partial curve]"
CCCCCCCCCCn1c2c(c(=N)c3c1CCC3)CCC2,"15.8 µM [falling, single point]","20 µM [falling, partial curve]"
COc1cc(-c2cc(C(=O)Nc3c(Cl)cc(Cl)cc3Cl)c3ccccc3n2)cc(OC)c1OC,"22.4 µM [rising, single point]",
Cc1ccc(Cl)cc1NC(=O)C[n+]1ccc(Cc2ccc([N+](=O)[O-])cc2)cc1,,"35.5 µM [rising, single point]"
CCOc1ccccc1NC(=O)CN(c1ccc(OC)cc1)S(=O)(=O)c1c(C)noc1C,"11.2 µM [rising, partial curve]","6.31 µM [rising, full curve]"
CCOC(=O)C1(CC2CC2)CCN(Cc2cnc(-c3ccccc3C)nc2)CC1,"35.5 µM [falling, partial curve, poor fit]",
Cn1c(=O)c(C(=O)COC(=O)c2cc(C(F)(F)F)nc3ccccc23)c(N)n(Cc2ccccc2)c1=O,"12.6 µM [rising, partial curve]","25.1 µM [rising, single point]"
COc1cccc(Cn2c(=O)c(C)nc3cnc(N4CCN(C)CC4)nc32)c1,"14.1 µM [falling, partial curve]",
O=C(/C=C/c1ccccc1Cl)c1cccnc1,"25.1 µM [falling, single point]","35.5 µM [falling, single point]"
O=C(/C=C/c1ccco1)Nc1nnc(-c2ccco2)s1,"1.26 µM [rising, full curve]","1 µM [rising, partial curve, poor fit]"
